Percent effect of library compounds

The values are deposited in ChEMBL (CHEMBL3988442, “University of Dundee, Small-Polar-MMV Screening Library” (2021)).

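Assay of Toxoplasma gondii numbers, read through their beta-galactosidase reporter with a colour substrate. Compounds at 50 µM. Higher reads as fewer parasites (inferred from which compounds were picked for retests). Of about 18,000 compounds tested this way, about 170 (0.94%) reached 50% or more in at least one test.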

Each number is a percent effect as filed.
How 0% and 100% were set is not recorded. Most values in the screen are low, and negative values occur.
The compounds are a random part of those screened.

| structure | effect |
|---|---|
| `CC(C#N)N1CCN(c2nccs2)CC1` (centres undefined) | 3.748% |
| `CN(C)CCC1CN(C(=O)C2CCC2)CCO1` (centres undefined) | -16.51% |
| `OCc1csc2nccn12` | -1.596% |
| `CCOc1cccc(N2CCNCC2)c1` | -5.104% |
| `CNC(=O)NC(=O)CNC(C)(C)c1nc(C)c(C)s1` | -0.07754% |
| `CN(C)C(=O)NC1CCCNC1` (centres undefined) | -14.29% |
| `Cc1ccc(C(=O)NCCN2CCOCC2)c(C)c1` | 46.77% |
| `Cc1nc(CC(=O)NC2C=CS(=O)(=O)C2)cs1` (centres undefined) | 3.538% |
| `Cn1nc(C(=O)NCCc2ccccc2Br)ccc1=O` | -25.58% |
| `O=C(NC1CCc2ccc(F)cc21)c1c[nH]nn1` (centres undefined) | 10.36% |
| `CC(C)N1CCC(NC(=O)c2ccc3[nH]nnc3c2)C1` (centres undefined) | 21.59% |
| `O=C(NCCNC(=O)c1ccccc1)C1=CCC1` | -29.07% |
| `Nc1nccnc1C(=O)NCCCN1CCCC1=O` | 11.34% |
| `CCC(c1cccnc1)N(C)C(=O)CNC` (centres undefined) | 6.779% |
| `CCCC(=O)Nc1c(C)n[nH]c1C` | -47.48% |
| `NC1CCc2nccn2C1` (centres undefined) | 2.819% |
| `NCc1nnc2n1CCC2` | -0.4241% |
| `N#Cc1nccnc1N1CCC(CN2CCOCC2)C1` (centres undefined) | -4.594% |
| `CC(C)c1cc(CN(C)C(=O)CCNS(C)(=O)=O)no1` | 28.25% |
| `COC(C)(C)c1nsc(N)n1` | -24.22% |
| `CC[C@H](N)C(=O)N1CCCC1CC(C)C` (some centres undefined) | 4.161% |
| `CN1CCCN(C(=O)c2csc3c2CCCC3)CC1` | 5.117% |
| `CC(C)CNC1CCS(=O)(=O)C1` (centres undefined) | -3.839% |
| `COc1ccc(C(=O)N2CCCCC2C(N)=O)cc1F` (centres undefined) | 10.16% |
| `Cc1nn(C)c2nc(NCCC(=O)N3CCCC3)sc12` | -2.573% |
| `CC(=O)c1cn(C(C)C)nn1` | -2.333% |
| `CCC(CC)C(CN)N1CCCC1` (centres undefined) | 19.48% |
| `c1cc(CNCCn2cccn2)c2c(c1)OCCO2` | 2.385% |
| `CCc1nc(CNC(=O)C2CCCO2)cs1` (centres undefined) | 23.47% |
| `NC1CCN(C(=O)c2cccnc2)C1` (centres undefined) | -1.553% |
| `O=C1CN(CC(=O)N2CCCCCC2)CCN1` | 5.873% |
| `NCC1CCNc2ccccc21` (centres undefined) | -8.539% |
| `CC(C1CC1)N(CCC#N)C(=O)N(C)C` (centres undefined) | -2.829% |
| `CN1CC(CO)C2(CCNCC2)C1` (centres undefined) | -10.25% |
| `CC(C)(CO)NC1CCS(=O)(=O)C1` (centres undefined) | -15.16% |
| `O=C(Nc1ccccc1F)c1ncccn1` | 1.45% |
| `COCCC1(C(=O)NCc2ncoc2C)CC1` | -0.5253% |
| `CC(=O)c1csc(C)c1` | -4.54% |
| `CCn1nccc1[C@@H]1OCCC[C@H]1CO` | -4.995% |
| `O=S1(=O)CCC(n2cnc(I)n2)C1` (centres undefined) | -8.71% |
| `CCOCCC(=O)N1C[C@H](C(C)C)[C@@H](N)C1` | -7.71% |
| `CC(C)CCN1CCC(CNS(C)(=O)=O)CC1` | 1.99% |
| `Cc1cccc(NC(=O)[C@@H]2CCCN2)n1` | 46.13% |
| `O=C(NC1CCCCC1)NC1CCNCC1` | -0.4916% |
| `CCCC(=O)NCc1nnc(C2CCC2)n1C` | 12.58% |
| `O=C(NC1CNC1)C1CCC1` | 1.166% |
| `CNC(=O)c1cccc(-c2nc(C(C)(C)OC)no2)c1` | -16.6% |
| `CCC(NCCn1cc(C)cn1)C(N)=O` (centres undefined) | 7.752% |
| `NCCc1ccoc1` | 0.8481% |
| `CC(=O)c1ccc(CNC(=O)c2cc[nH]n2)nc1C` | -6.846% |
| `CC(C)c1cccc(S(=O)(=O)N2CCCC2CN)c1` (centres undefined) | 1.833% |
| `CN(CC(=O)Nc1ccc2oc(=O)[nH]c2c1)C1CC1` | 3.362% |
| `NCCCc1nnc(N)s1` | 1.84% |
| `OCCC1COc2ccc(F)cc2N1` (centres undefined) | -5.708% |
| `CCc1cnc(N2CCNCC2)s1` | 54.04% |
| `CC(C)n1ccnc1C1CCN(C(=O)[C@@H](C)O)CC1` | -11.54% |
| `Cc1ccc(C(=O)NCCCN2CCCC2)cc1` | 3.9% |
| `COC(=O)CN1CCN(Cc2ccccc2)CC1` | -2.942% |
| `Cc1cc(N)nc(SCc2cc(C)on2)n1` | 12.07% |
| `Cn1ncnc1NC(=O)c1ccc(C#N)cc1` | 4.188% |
| `CCn1cc(OCCCS(=O)(=O)C(C)C)cn1` | -1.915% |
| `CN(CCN)C(C1CC1)C1CC1` | 0.541% |
| `CN1CCC(NC(=O)c2ccc(Br)o2)CC1` | 6.046% |
| `NC(=O)c1cc(Br)cc(S(=O)(=O)N2CC[C@@H](O)C2)c1` | 0.6809% |
| `NC(C(=O)N1CCOC2(CCC2)C1)c1ccccc1` (centres undefined) | 18.2% |

The first 7 entries again:

| structure | effect |
|---|---|
| `CC(C#N)N1CCN(c2nccs2)CC1` (centres undefined) | 3.748% |
| `CN(C)CCC1CN(C(=O)C2CCC2)CCO1` (centres undefined) | -16.51% |
| `OCc1csc2nccn12` | -1.596% |
| `CCOc1cccc(N2CCNCC2)c1` | -5.104% |
| `CNC(=O)NC(=O)CNC(C)(C)c1nc(C)c(C)s1` | -0.07754% |
| `CN(C)C(=O)NC1CCCNC1` (centres undefined) | -14.29% |
| `Cc1ccc(C(=O)NCCN2CCOCC2)c(C)c1` | 46.77% |